No constants are given. Whether binding was seen depends on the method and setting. In cells and extracts the contact can be indirect. Some binding calls cover weakened binding; strength is not graded here.

By UniProt entry, the sequences of proteins in these tests, tags left out. Where a name states a change or a piece, a line headed by the entry shows the natural chain unless it says otherwise.
UniProt P25963: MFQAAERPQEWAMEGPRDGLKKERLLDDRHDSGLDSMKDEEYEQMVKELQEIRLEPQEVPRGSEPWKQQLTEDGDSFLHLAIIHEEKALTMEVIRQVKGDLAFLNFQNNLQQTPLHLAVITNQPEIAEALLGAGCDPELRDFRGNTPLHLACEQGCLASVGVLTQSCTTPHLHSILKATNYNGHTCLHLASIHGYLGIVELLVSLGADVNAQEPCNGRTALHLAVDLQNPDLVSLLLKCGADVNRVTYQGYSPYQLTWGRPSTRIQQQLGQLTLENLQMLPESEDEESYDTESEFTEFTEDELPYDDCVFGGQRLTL
UniProt Q7Z6E9: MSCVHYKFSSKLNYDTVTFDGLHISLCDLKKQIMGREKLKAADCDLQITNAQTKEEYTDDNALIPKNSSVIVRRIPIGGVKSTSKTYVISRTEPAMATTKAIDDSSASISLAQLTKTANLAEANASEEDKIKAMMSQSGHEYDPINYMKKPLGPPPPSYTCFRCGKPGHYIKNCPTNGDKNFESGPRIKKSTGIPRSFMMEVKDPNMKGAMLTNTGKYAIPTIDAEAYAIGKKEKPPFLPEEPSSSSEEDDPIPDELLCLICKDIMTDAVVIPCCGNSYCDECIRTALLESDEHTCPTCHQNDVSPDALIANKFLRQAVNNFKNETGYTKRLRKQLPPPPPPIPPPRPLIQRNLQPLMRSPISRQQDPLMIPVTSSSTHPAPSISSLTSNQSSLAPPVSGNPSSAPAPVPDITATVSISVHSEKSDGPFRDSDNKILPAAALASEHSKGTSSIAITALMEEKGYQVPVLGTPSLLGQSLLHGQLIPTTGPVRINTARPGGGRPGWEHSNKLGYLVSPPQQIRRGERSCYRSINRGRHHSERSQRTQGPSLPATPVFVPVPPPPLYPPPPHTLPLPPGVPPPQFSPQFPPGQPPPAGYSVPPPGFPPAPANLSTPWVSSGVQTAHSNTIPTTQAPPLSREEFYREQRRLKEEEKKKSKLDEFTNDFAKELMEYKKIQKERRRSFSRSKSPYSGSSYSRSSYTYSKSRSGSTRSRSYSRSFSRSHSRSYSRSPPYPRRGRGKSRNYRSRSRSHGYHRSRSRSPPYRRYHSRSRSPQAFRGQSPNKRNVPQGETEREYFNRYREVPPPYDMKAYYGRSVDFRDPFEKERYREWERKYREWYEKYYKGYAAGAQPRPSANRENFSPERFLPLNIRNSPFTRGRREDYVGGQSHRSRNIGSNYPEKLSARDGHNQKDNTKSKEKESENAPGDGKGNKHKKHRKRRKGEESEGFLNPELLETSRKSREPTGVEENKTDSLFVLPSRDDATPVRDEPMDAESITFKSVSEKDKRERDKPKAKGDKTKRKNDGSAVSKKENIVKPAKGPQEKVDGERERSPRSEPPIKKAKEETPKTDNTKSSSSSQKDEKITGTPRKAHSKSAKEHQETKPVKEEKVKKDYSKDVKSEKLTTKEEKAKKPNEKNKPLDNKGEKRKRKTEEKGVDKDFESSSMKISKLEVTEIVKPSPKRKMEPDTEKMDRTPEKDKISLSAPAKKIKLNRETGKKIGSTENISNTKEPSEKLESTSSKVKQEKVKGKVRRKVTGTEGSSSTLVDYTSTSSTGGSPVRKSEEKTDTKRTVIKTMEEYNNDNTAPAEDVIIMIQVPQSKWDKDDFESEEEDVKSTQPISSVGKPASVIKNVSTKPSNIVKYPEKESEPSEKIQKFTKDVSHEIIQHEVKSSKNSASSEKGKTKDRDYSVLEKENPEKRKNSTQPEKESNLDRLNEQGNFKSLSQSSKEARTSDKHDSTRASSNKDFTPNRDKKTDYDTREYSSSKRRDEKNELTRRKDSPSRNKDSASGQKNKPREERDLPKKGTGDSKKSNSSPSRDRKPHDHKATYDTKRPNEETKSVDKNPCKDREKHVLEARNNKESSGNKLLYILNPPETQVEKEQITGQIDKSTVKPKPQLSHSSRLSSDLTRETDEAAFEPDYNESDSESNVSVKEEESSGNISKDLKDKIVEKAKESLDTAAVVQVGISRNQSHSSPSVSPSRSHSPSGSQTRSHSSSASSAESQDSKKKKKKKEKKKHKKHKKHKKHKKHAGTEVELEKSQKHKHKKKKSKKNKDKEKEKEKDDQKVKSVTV
UniProt O95071: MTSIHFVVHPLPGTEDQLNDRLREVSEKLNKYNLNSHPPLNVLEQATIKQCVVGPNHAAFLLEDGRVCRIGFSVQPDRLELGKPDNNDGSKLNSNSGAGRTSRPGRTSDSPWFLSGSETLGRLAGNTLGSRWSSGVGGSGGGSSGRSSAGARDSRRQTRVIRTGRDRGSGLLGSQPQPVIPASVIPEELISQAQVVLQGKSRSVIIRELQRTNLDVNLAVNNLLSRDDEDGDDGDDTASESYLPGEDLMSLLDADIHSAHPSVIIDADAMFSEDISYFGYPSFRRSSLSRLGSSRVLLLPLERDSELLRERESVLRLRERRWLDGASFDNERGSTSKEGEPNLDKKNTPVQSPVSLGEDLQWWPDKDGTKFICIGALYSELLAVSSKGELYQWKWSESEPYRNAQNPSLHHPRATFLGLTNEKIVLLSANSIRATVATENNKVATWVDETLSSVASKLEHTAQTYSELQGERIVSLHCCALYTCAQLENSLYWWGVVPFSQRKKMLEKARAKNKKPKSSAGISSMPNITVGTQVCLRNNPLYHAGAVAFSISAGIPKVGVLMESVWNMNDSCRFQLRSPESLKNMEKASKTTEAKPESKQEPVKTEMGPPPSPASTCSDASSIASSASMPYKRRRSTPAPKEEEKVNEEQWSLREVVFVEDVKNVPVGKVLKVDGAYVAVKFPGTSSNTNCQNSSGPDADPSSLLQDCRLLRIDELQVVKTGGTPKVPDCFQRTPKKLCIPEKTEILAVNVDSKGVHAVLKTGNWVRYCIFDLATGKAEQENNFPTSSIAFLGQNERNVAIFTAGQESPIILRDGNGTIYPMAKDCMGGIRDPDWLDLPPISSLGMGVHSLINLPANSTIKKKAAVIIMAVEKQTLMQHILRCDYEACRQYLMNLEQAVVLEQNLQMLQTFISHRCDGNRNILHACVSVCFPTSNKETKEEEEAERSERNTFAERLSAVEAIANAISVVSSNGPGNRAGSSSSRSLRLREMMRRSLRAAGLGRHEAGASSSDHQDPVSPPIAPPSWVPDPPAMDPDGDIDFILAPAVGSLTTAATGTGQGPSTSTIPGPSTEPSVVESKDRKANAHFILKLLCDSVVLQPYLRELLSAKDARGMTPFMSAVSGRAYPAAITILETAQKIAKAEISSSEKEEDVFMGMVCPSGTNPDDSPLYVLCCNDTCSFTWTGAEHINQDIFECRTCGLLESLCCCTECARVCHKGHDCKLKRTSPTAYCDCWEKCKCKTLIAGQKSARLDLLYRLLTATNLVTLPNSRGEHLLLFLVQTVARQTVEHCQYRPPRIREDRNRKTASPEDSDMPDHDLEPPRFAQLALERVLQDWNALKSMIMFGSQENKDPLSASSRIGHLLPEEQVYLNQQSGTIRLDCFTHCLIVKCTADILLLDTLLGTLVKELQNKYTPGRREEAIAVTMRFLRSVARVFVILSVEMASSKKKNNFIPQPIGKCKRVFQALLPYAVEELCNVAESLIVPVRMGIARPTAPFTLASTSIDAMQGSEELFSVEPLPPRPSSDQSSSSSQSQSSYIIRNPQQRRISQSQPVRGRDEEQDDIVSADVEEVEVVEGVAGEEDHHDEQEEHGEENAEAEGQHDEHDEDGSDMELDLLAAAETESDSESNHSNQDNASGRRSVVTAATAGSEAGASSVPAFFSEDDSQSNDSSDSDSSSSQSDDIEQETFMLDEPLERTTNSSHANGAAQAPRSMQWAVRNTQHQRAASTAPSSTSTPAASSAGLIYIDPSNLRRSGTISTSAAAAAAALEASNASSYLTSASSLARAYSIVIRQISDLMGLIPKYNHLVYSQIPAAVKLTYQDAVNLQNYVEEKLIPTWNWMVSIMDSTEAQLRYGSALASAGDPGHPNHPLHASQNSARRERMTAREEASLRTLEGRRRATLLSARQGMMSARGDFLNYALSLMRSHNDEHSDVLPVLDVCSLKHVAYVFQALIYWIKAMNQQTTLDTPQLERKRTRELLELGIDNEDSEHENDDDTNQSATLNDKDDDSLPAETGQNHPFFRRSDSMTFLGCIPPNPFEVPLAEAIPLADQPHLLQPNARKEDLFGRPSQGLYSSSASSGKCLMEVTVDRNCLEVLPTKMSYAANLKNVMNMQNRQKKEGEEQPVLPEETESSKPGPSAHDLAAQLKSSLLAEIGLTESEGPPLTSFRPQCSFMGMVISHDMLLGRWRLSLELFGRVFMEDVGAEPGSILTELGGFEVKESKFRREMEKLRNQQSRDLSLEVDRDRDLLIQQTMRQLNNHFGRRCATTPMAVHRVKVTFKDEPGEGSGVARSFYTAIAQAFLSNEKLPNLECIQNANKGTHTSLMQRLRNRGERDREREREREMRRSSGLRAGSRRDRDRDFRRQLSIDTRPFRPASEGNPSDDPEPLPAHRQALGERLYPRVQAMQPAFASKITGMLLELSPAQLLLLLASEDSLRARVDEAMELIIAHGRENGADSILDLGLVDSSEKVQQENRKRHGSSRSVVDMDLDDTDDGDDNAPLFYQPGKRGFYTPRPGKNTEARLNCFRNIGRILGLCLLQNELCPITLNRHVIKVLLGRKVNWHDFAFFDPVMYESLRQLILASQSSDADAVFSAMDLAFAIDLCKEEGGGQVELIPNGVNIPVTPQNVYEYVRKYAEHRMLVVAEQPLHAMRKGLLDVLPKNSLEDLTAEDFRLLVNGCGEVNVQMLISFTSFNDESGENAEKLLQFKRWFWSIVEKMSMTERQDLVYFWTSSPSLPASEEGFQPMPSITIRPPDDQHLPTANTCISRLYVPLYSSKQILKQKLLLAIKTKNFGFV

This note sets out measurements from paper PMC11904980.

For assay [1], the target named is His‐tagged IκBα (UniProt P25963). Briefly: co-IP; 293T cells transfected with tagged vectors (His-IκBα or its lysine mutants, Myc-RBBP6, Flag circPCSK6-167aa); antibody (e.g. anti-Flag or anti-Myc) overnight at 4 °C, protein A/G magnetic beads, western blot (Figure 6F, I, L-O). In general terms: A western blot detects proteins with antibodies after separation by electrophoresis.

In the next assay the target is IκBα‐K22R mutant (UniProt P25963). The assay is described as above.
For assay [2], the target named is His‐tagged IκBα (UniProt P25963). Put plainly: pull-down; His-IκBα from transfected 293T cells held on Ni-NTA beads, washed with 20 mM imidazole; lysates of 293T cells expressing Flag circPCSK6-167aa or Myc-RBBP6 incubated 2 h; eluted with 250 mM imidazole; western blot; only the target purified.
Assay [3] addresses IκBα in ICC cells (human (endogenous in ICC cell lines)) (UniProt P25963). Briefly: co-IP; ICC cell lysate, pre-cleared, antibody overnight at 4 °C, protein A/G magnetic beads, three washes with PBS, western blot (Figure 5F); which protein was precipitated is not told.

Regarding “Myc‐tagged RBBP6 (from UniProt Q7Z6E9 1-1792)”, the binding result with His‐tagged IκBα [1], with IκBα‐K22R mutant and with His‐tagged IκBα [2] was “binds” in each case.

Turning to “RBBP6 (E3 ligase) in ICC cells (from UniProt Q7Z6E9 1-1792)”, in assay [3], the binding result is “binds”.

As to “UBR5 (E3 ligase) in ICC cells (from UniProt O95071 1-2799)”, the binding entry in assay [3] was “binds weakly”.
